This experiment concerns HEK293A TEAD-LUC reporter. The experiment can be described thus: TEAD-luciferase reporter activity (YAP activation), robust Z score vs plate; higher = stronger YAP/TEAD activation. The note with it: 24 h. On the technique in general: Reporter assays use an easily measured gene product as a stand-in for the process of interest.

Where a name gives a salt, the structure may show the parent alone. Some of the results follow. This data set is noisy: repeats of one test often differ as much as different tests do.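 Human kidney-derived cells stably carry a construct in which eight TEAD-binding elements drive luciferase, measured by luminescence in a drug-repurposing library screen. A hit is any compound whose signal exceeds the plate mean by more than five robust Z scores.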

For `C=CCN(C1=NCCN1)c1c(Cl)ccc2nsnc12`, the TEAD-luciferase reporter activity reads like this: (compound concentration: 200 nM) inactive: -1.88; (compound concentration: 2 uM) inactive: -1.07; (compound concentration: 10 uM) inactive: 0.428.

Take `Fc1cccc(F)c1C1SCc2nc3ccccc3n21` (stereo unspecified): the TEAD-luciferase reporter activity runs as follows: (compound concentration: 200 nM) inactive: -1.02; (compound concentration: 2 uM) inactive: -0.743; (compound concentration: 10 uM) inactive: 0.0336.

`c1cncc(C2CCC3CCN2CC3)c1` (stereo unspecified): the TEAD-luciferase reporter activity runs as follows: (compound concentration: 200 nM) active: 7.16; (compound concentration: 2 uM) inactive: 4.09; (compound concentration: 10 uM) inactive: 0.37.

As for `O=C(c1ccc(Cl)o1)N1CC2CNCC2C1` (stereo unspecified), the TEAD-luciferase reporter activity by setting is: (compound concentration: 200 nM) inactive: -1.57; (compound concentration: 2 uM) inactive: 2.24; (compound concentration: 10 uM) inactive: 0.962.

As to `CCC1(c2ccccc2)C(=O)NC(=O)N(C)C1=O` (stereo unspecified) [Methylphenobarbital], the TEAD-luciferase reporter activity by setting is: (compound concentration: 200 nM) inactive: -1.87; (compound concentration: 2 uM) inactive: -1.91; (compound concentration: 10 uM) active: 6.66.

As for `CCN(CC)C(=O)N[C@H]1CC2c3cccc4[nH]cc(c34)CC2N(C)C1` (stereo partly specified) [Terguride], the TEAD-luciferase reporter activity was inactive: -1.89 (compound concentration: 200 nM), inactive: -0.6 (compound concentration: 2 uM) and inactive: 3.34 (compound concentration: 10 uM).

Take `CN(N=O)C(=O)N[C@@H]1OC(CO)[C@@H](O)C(O)C1O` (stereo partly specified): the TEAD-luciferase reporter activity (compound concentration: 200 nM) is inactive: -0.192, the TEAD-luciferase reporter activity (compound concentration: 2 uM) was inactive: -0.658 and the TEAD-luciferase reporter activity (compound concentration: 10 uM) is inactive: -1.24.

For the compound `COC(=O)Nc1nc2ccccc2[nH]1` [carbendazim], the TEAD-luciferase reporter activity was inactive: 1.95 (compound concentration: 200 nM), inactive: -1.94 (compound concentration: 2 uM) and inactive: -1.45 (compound concentration: 10 uM).

As for `Cc1cccc([C@H](C)c2c[nH]c(=S)[nH]2)c1C`, the TEAD-luciferase reporter activity runs as follows: (compound concentration: 200 nM) inactive: -0.172; (compound concentration: 2 uM) inactive: -1.57; (compound concentration: 10 uM) inactive: 0.229.

As to `CNCc1nnc2n1-c1ccc(Cl)cc1C(c1ccccc1)=NC2` [N-Desmethyladinazolam], the TEAD-luciferase reporter activity (compound concentration: 200 nM) is inactive: -2.4, the TEAD-luciferase reporter activity (compound concentration: 2 uM) was inactive: -0.226 and the TEAD-luciferase reporter activity (compound concentration: 10 uM) was active: 7.19.

Take `Cc1cccc(NC(=O)N[C@@H]2N=C(c3ccccc3)c3ccccc3N(CC(=O)c3ccccc3C)C2=O)c1`: the TEAD-luciferase reporter activity was inactive: -1.32 (compound concentration: 200 nM), inactive: -1.4 (compound concentration: 2 uM) and inactive: -0.347 (compound concentration: 10 uM).

On to `C#C[C@]1(OC(C)=O)CCC2C3CC[C@H]4CC(OC(C)=O)CCC4(C)C3CCC21C` (stereo partly specified), for which the TEAD-luciferase reporter activity reads like this: (compound concentration: 200 nM) inactive: -0.434; (compound concentration: 2 uM) inactive: -1.29; (compound concentration: 10 uM) inactive: -0.435.

For the compound `C=C/C=C/CC1=C(C)C(OC(=O)[C@@H]2C(/C=C(\C)C(=O)OC)C2(C)C)CC1=O.C=C/C=C/CC1=C(C)[C@@H](OC(=O)[C@@H]2C(C=C(C)C)C2(C)C)CC1=O` (stereo partly specified), the TEAD-luciferase reporter activity (compound concentration: 200 nM) was inactive: 0.0212, the TEAD-luciferase reporter activity (compound concentration: 2 uM) is inactive: -0.314 and the TEAD-luciferase reporter activity (compound concentration: 10 uM) is inactive: -0.635.

As for `CC1O[C@H](O[C@H]2C[C@@H](O)[C@]3(CO)C4C(O)C[C@]5(C)[C@@H](C6=CC(=O)OC6)CC[C@]5(O)[C@@H]4CC[C@]3(O)C2)C(O)C(O)[C@@H]1O` (stereo partly specified) [G-Strophanthin], the TEAD-luciferase reporter activity is, setting by setting: (compound concentration: 200 nM) active: 19.3; (compound concentration: 2 uM) inactive: -3.72; (compound concentration: 10 uM) active: 17.5.

In the case of `CN1C[C@H](C(=O)N[C@]2(C)O[C@@]3(O)[C@@H]4CCCN4C(=O)[C@H](Cc4ccccc4)N3C2=O)CC2c3cccc4[nH]cc(c34)C[C@H]21` (stereo partly specified), the TEAD-luciferase reporter activity by setting is: (compound concentration: 200 nM) inactive: -0.486; (compound concentration: 2 uM) inactive: -1.36; (compound concentration: 10 uM) inactive: 2.46.

As for `CC(C)(C)c1ccc(O)cc1`, the TEAD-luciferase reporter activity is, setting by setting: (compound concentration: 200 nM) inactive: -0.699; (compound concentration: 2 uM) inactive: -0.938; (compound concentration: 10 uM) inactive: -0.41.

Consider `O=S(=O)(Oc1ccc(Cl)cc1)c1ccc(Cl)cc1` [Miticide K 101], for which the TEAD-luciferase reporter activity is inactive: 0.664 (compound concentration: 200 nM), inactive: 1.3 (compound concentration: 2 uM) and inactive: -1.58 (compound concentration: 10 uM).

`O=C(CC1c2ccccc2C(=O)N1c1ccc2ccc(Cl)nc2n1)N1CCC2(CC1)OCCO2` (stereo unspecified): the TEAD-luciferase reporter activity by setting is: (compound concentration: 200 nM) inactive: -0.857; (compound concentration: 2 uM) inactive: 0.469; (compound concentration: 10 uM) inactive: 0.34.

With `C[C@H]1[C@H](O)[C@@H](C)/C=C/C=C/CC/C=C/C=C/C=C/C=C/[C@H](O[C@@H]2O[C@H](C)[C@@H](O)[C@H](N)[C@@H]2O)C[C@@H]2O[C@](O)(C[C@@H](O)[C@H](O)CC[C@@H](O)C[C@@H](O)C[C@@H](O)CC(=O)O[C@H]1C)C[C@H](O)[C@H]2C(=O)O` [Nystatin], the TEAD-luciferase reporter activity is inactive: -0.289 (compound concentration: 200 nM), inactive: 0.0862 (compound concentration: 2 uM) and inactive: 0.197 (compound concentration: 10 uM).

Take `NC(=O)c1ncn2c1CN=C(c1ccccc1Br)c1cc(F)ccc1-2` [Imidazenil]: the TEAD-luciferase reporter activity by setting is: (compound concentration: 200 nM) inactive: -1.72; (compound concentration: 2 uM) inactive: -1.31; (compound concentration: 10 uM) inactive: 0.0311.

With `CC(c1ccccc1)C(C)(C)N` (stereo unspecified), the TEAD-luciferase reporter activity is inactive: -0.697 (compound concentration: 200 nM) and inactive: 3.63 (compound concentration: 10 uM).

With `CCCCCOc1c(OC)ccc2cc(C(=O)NCc3ccc4c(c3)OCO4)c(O)nc12`, the TEAD-luciferase reporter activity runs as follows: (compound concentration: 200 nM) inactive: 2.09; (compound concentration: 2 uM) inactive: -1.62; (compound concentration: 10 uM) active: 6.06.

Regarding `Oc1ccc2c(c1)[C@@]13CCCC[C@H]1[C@@H](C2)N(CC1CCC1)CC3`, the TEAD-luciferase reporter activity (compound concentration: 200 nM) was inactive: -2.58, the TEAD-luciferase reporter activity (compound concentration: 2 uM) is inactive: -1.07 and the TEAD-luciferase reporter activity (compound concentration: 10 uM) is inactive: -1.32.

`Cc1ccc(-c2nc3ccc(C)cn3c2CC(=O)N(C)C)cc1`: the TEAD-luciferase reporter activity is, setting by setting: (compound concentration: 200 nM) inactive: 0.92; (compound concentration: 10 uM) inactive: 1.84.

Turning to `Cc1ccc(-c2nc3ccc(C)cn3c2CC(=O)N(C)C)cc1` [zolpidem tartrate MR], under “compound concentration: 2 uM”, the TEAD-luciferase reporter activity is inactive: -1.06.

With `CN(C)C[C@H]1C[C@@H]1c1c[nH]c2ccc(C#N)cc12`, the TEAD-luciferase reporter activity is, setting by setting: (compound concentration: 200 nM) inactive: -1.52; (compound concentration: 2 uM) inactive: -0.523; (compound concentration: 10 uM) inactive: -0.753.

For `COc1cccc(NCC(F)Cn2c3ccc(Br)cc3c3cc(Br)ccc32)n1` (single isomer, unassigned; (-)), the TEAD-luciferase reporter activity (compound concentration: 200 nM) is inactive: 1.61, the TEAD-luciferase reporter activity (compound concentration: 2 uM) was inactive: -0.379 and the TEAD-luciferase reporter activity (compound concentration: 10 uM) is inactive: -0.415.

`O=C(Cc1ccc(C(F)(F)F)cc1)N1CCCCC1CN1CCCC1` (stereo unspecified): the TEAD-luciferase reporter activity by setting is: (compound concentration: 200 nM) inactive: 0.989; (compound concentration: 2 uM) inactive: 1.27; (compound concentration: 10 uM) inactive: -0.805.

Regarding `CC(=O)N(C)C(C)C(=O)c1ccc2c(c1)OCO2` (stereo unspecified), the TEAD-luciferase reporter activity was inactive: -0.144 (compound concentration: 200 nM), inactive: -0.473 (compound concentration: 2 uM) and inactive: 0.938 (compound concentration: 10 uM).

Take `CCC(C)(CC)OC(N)=O`: the TEAD-luciferase reporter activity is, setting by setting: (compound concentration: 200 nM) inactive: -0.323; (compound concentration: 2 uM) inactive: -0.557; (compound concentration: 10 uM) inactive: -0.278.

Regarding `CCCCCCCCCCCC(=O)OOC(=O)CCCCCCCCCCC`, the TEAD-luciferase reporter activity by setting is: (compound concentration: 200 nM) inactive: -0.593; (compound concentration: 2 uM) inactive: -0.526; (compound concentration: 10 uM) inactive: -0.577.

As to `CCCN(CCC)CCc1ccc(OC)c(OCCc2ccccc2)c1`, the TEAD-luciferase reporter activity (compound concentration: 200 nM) is inactive: 4.56, the TEAD-luciferase reporter activity (compound concentration: 2 uM) was inactive: -1.89 and the TEAD-luciferase reporter activity (compound concentration: 10 uM) is inactive: 0.0556.

As for `C#CCN1C(=O)NC2(CCN(CC(C)C)CC2)C1=O`, the TEAD-luciferase reporter activity (compound concentration: 200 nM) was inactive: 0.985, the TEAD-luciferase reporter activity (compound concentration: 2 uM) was inactive: -0.421 and the TEAD-luciferase reporter activity (compound concentration: 10 uM) was inactive: -1.42.

With `O=C(NCc1ccccn1)c1cnc(Nc2cccc(Cl)c2)nc1C(F)(F)F`, the TEAD-luciferase reporter activity was inactive: -0.488 (compound concentration: 200 nM), inactive: -0.912 (compound concentration: 2 uM) and inactive: 0.654 (compound concentration: 10 uM).

`COc1ccc2c3c1O[C@@]1(C)C[C@@H](O)C=CC31CCN(C)C2` (stereo partly specified): the TEAD-luciferase reporter activity is inactive: 2.2 (compound concentration: 200 nM), inactive: -0.417 (compound concentration: 2 uM) and inactive: -1.15 (compound concentration: 10 uM).

Values taken from the supplement of paper PMC10735217.
